US9705096B2, “Organic transistor, compound, organic semiconductor material for non-light-emitting organic semiconductor device, material for organic transistor, coating solution for non-light-emitting organic semiconductor device, organic semiconductor film for non-light-emitting organic semiconductor device, …” (FUJIFILM Corporation, priority 2014, dated 2017)

How the values were obtained:
[1] = Carrier mobility of organic transistor element, semiconductor layer formed from compound alone (Example 2, bottom gate/bottom contact); conditions: compound alone cast from toluene; bottom gate/bottom contact FET; −80 V source-drain, gate 20 V to −100 V; normal pressure/nitrogen
[2] = Threshold voltage shift after repeated driving (Example 2 elements); conditions: compound alone; driven 100 times, gate +20 V to −100 V; |Vafter−Vbefore|
[3] = Carrier mobility, semiconductor layer formed from compound and PαMS binder (Example 3); conditions: compound 1 mg with 1 mg PαMS binder in toluene, bottom gate/bottom contact FET
[4] = Heat resistance of element (decrease in mobility after heating); conditions: element heated 30 minutes at 150° C. on a hot plate
[5] = Variation of element (carrier mobility difference between first and second element); conditions: difference in carrier mobility between first and second element
[6] = Carrier mobility, bottom gate/top contact element (Example 4); conditions: bottom gate/top contact FET on octyltrichlorosilane-treated SiO2 (370 nm), W=5 mm, L=80 μm
[7] = Threshold voltage shift after repeated driving, compound and PαMS binder (Example 3); conditions: compound with PαMS binder; same criteria as Example 2
[8] = listed as comparative compound 1

Structure (SMILES)	Carrier mobility [1]	Threshold voltage shift after repeated driving [2]	Carrier mobility [3]	Carrier mobility [3, 8]	Heat resistance [4]	Variation [5]	Carrier mobility [6]	Carrier mobility [6, 8]	Threshold voltage shift after repeated driving [7]
CCc1cc2sc3cc4sc5cc(CC)sc5c4cc3c2s1 [Comparative compound 1, reference compound]	5.4 × 10^−4 cm^2/Vs	C (|Vafter−Vbefore|>10 V)	2.2 × 10^−4 cm^2/Vs	low carrier mobility	C (The decrease in mobility was equal to or greater than 30%.)	C (The difference in carrier mobility was equal to or greater than 50%.)	8.5 × 10^−5 cm^2/Vs	low carrier mobility	C (|Vafter−Vbefore|>10 V)
CCCCCCCCc1cc2sc3cc4sc5cc(CCCCCCCC)sc5c4cc3c2s1 [Compound 1]	5.0 × 10^−2 cm^2/Vs	–	8.8 × 10^−2 cm^2/Vs	–	B (The decrease in mobility was equal to or greater than 10% and less than 30%.)	B (The difference in carrier mobility was equal to or greater than 20% and less than 50%.)	5.5 × 10^−2 cm^2/Vs	–	–
CCCCCCCCc1csc2c1sc1cc3sc4c(CCCCCCCC)csc4c3cc12 [Compound 2]	8.1 × 10^−3 cm^2/Vs	A (|Vafter−Vbefore|≦5 V)	9.1 × 10^−3 cm^2/Vs	–	B (The decrease in mobility was equal to or greater than 10% and less than 30%.)	B (The difference in carrier mobility was equal to or greater than 20% and less than 50%.)	–	–	A (|Vafter−Vbefore|≦5 V)
CCCCCCCCCCCCc1cc2sc3cc4sc5cc(CCCCCCCCCCCC)sc5c4cc3c2s1 [Compound 3]	7.4 × 10^−2 cm^2/Vs	A (|Vafter−Vbefore|≦5 V)	3.3 × 10^−2 cm^2/Vs	–	A (The decrease in mobility was less than 10%.)	A (The difference in carrier mobility was less than 20%.)	3.6 × 10^−2 cm^2/Vs	–	A (|Vafter−Vbefore|≦5 V)
CCCCCCCCc1ccc(-c2cc3sc4cc5sc6cc(-c7ccc(CCCCCCCC)s7)sc6c5cc4c3s2)s1 [Compound 4]	4.9 × 10^−2 cm^2/Vs	A (|Vafter−Vbefore|≦5 V)	7.5 × 10^−2 cm^2/Vs	–	A (The decrease in mobility was less than 10%.)	B (The difference in carrier mobility was equal to or greater than 20% and less than 50%.)	8.5 × 10^−2 cm^2/Vs	–	A (|Vafter−Vbefore|≦5 V)
CCCCCCCCc1csc(-c2cc3sc4cc5sc6cc(-c7cc(CCCCCCCC)cs7)sc6c5cc4c3s2)c1 [Compound 5]	7.3 × 10^−2 cm^2/Vs	A (|Vafter−Vbefore|≦5 V)	9.4 × 10^−2 cm^2/Vs	–	A (The decrease in mobility was less than 10%.)	B (The difference in carrier mobility was equal to or greater than 20% and less than 50%.)	–	–	A (|Vafter−Vbefore|≦5 V)
CCCCCCCCc1ccc(-c2cc3sc4cc5sc6cc(-c7ccc(CCCCCCCC)o7)sc6c5cc4c3s2)o1 [Compound 8]	1.5 × 10^−2 cm^2/Vs	A (|Vafter−Vbefore|≦5 V)	–	–	A (The decrease in mobility was less than 10%.)	B (The difference in carrier mobility was equal to or greater than 20% and less than 50%.)	–	–	–
CCCCCCCCc1ccc(-c2cc3sc4cc5sc6cc(-c7ccc(CCCCCCCC)cc7)sc6c5cc4c3s2)cc1 [Compound 9]	3.4 × 10^−2 cm^2/Vs	B (5 V<|Vafter−Vbefore|≦10 V)	–	–	A (The decrease in mobility was less than 10%.)	B (The difference in carrier mobility was equal to or greater than 20% and less than 50%.)	8.8 × 10^−2 cm^2/Vs	–	–
CCCCCCCCOc1ccc(-c2cc3sc4cc5sc6cc(-c7ccc(OCCCCCCCC)cc7)sc6c5cc4c3s2)cc1 [Compound 10]	8.7 × 10^−3 cm^2/Vs	A (|Vafter−Vbefore|≦5 V)	–	–	B (The decrease in mobility was equal to or greater than 10% and less than 30%.)	B (The difference in carrier mobility was equal to or greater than 20% and less than 50%.)	–	–	–
CCCCCCCCc1cc2sc3cc4sc5cc(CCCCCCCC)oc5c4cc3c2o1 [Compound 21]	5.0 × 10^−2 cm^2/Vs	A (|Vafter−Vbefore|≦5 V)	–	–	B (The decrease in mobility was equal to or greater than 10% and less than 30%.)	B (The difference in carrier mobility was equal to or greater than 20% and less than 50%.)	–	–	–
CC(C)CCCC(C)CCc1cc2sc3cc4sc5cc(CCC(C)CCCC(C)C)sc5c4cc3c2s1 (stereo not drawn) [Compound 31]	5.8 × 10^−2 cm^2/Vs	A (|Vafter−Vbefore|≦5 V)	–	–	B (The decrease in mobility was equal to or greater than 10% and less than 30%.)	A (The difference in carrier mobility was less than 20%.)	–	–	–
CC(C)CCCC(C)CCc1ccc(-c2cc3sc4cc5sc6cc(-c7ccc(CCC(C)CCCC(C)C)s7)sc6c5cc4c3s2)s1 (stereo not drawn) [Compound 33]	8.0 × 10^−2 cm^2/Vs	A (|Vafter−Vbefore|≦5 V)	–	–	A (The decrease in mobility was less than 10%.)	A (The difference in carrier mobility was less than 20%.)	–	–	–
CCCCCCCCCCCCCCCCCCCCCCc1cc2sc3cc4sc5cc(CCCCCCCCCCCCCCCCCCCCCC)sc5c4cc3c2s1 [Compound 41]	7.4 × 10^−3 cm^2/Vs	A (|Vafter−Vbefore|≦5 V)	–	–	B (The decrease in mobility was equal to or greater than 10% and less than 30%.)	B (The difference in carrier mobility was equal to or greater than 20% and less than 50%.)	–	–	–
